Here are results for 15 targets from the supplement of paper PMC12067093, “Discovery and optimisation of a covalent ligand for TRIM25 and its application to targeted protein ubiquitination” (Chemical Science, 2025).

This is one part of the list.

Compound in this experiment: CC1Cc2ccccc2N1C(=O)C1CCCN(C1)C(=O)CCl (mixture of isomers) [TRIM25 ligand 11 (diastereomer mixture)]
Description: probe-labelled cysteine peptide fold change vs DMSO (competition) (log2 fold change); higher = less target engagement (more negative = stronger competition). Particulars: THP-1, incubation time: 4 h.
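Also: competitive chemoproteomic profiling in live THP-1 cells with an iodoacetamide desthiobiotin (IA-DTB) probe, comparing probe-labelled peptide intensities in compound-treated cells against DMSO-treated controls.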

On to “PXN_P49023_505+523_ECFTPFVNGSFFEHDGQPYCEVHYHER (UniProt P49023)”, for which the “probe-labelled cysteine peptide fold change” value reads like this: (10 µM) 0.156; (50 µM) 0.019.
The like results for “RAB35_Q15286_114_WLHEINQNCDDVCR (UniProt Q15286)” were, in that order, -0.0528 and -0.0754.
For “RAB3GAP1_Q15042_181_MYVGECQGPGVR (UniProt Q15042)”, the “probe-labelled cysteine peptide fold change” value runs as follows: (10 µM) 0.104; (50 µM) 0.177.
“RABGAP1L_Q5R372_554_AEVWQLLAGCHDNQAMLDR (UniProt Q5R372)”: the “probe-labelled cysteine peptide fold change” value was 0.152 (10 µM) and -0.00881 (50 µM).
In the case of “QARS_P47897_111_ECGVGVIVTPEQIEEAVEAAINR (UniProt P47897)”, the “probe-labelled cysteine peptide fold change” value by setting is: (10 µM) 0.235; (50 µM) -0.211.
The corresponding values for “RACK1_P63244_207_TNHIGHTGYLNTVTVSPDGSLCASGGK (UniProt P63244)” are -0.002 and -0.0287.
The like results for “RAB9A_P51151_142_QVSTEEAQAWCR (UniProt P51151)” were, in that order, -0.0259 and -0.13.
The like results for “RAD21_O60216_585_TGAESISLLELCR (UniProt O60216)” were, in that order, 0.0789 and -0.0716.
For the target RAB1A_P62820_26_SCLLLR (UniProt P62820), the “probe-labelled cysteine peptide fold change” value by setting is: (10 µM) -0.339; (50 µM) 0.198.
The corresponding values for “PWP1_Q13610_439_MGVLFCSSCCPDLPFIYAFGGQK (UniProt Q13610)” are -0.123 and -0.00617.
On to “RABGEF1_Q9UJ41_157_GIHVDQSDLLCK (UniProt Q9UJ41)”, for which the “probe-labelled cysteine peptide fold change” value runs as follows: (10 µM) -0.0345; (50 µM) -0.189.
Take “RAB12_Q6IQ22_159_LDCETDREITR (UniProt Q6IQ22)”: the “probe-labelled cysteine peptide fold change” value came to 0.223 (10 µM) and 0.0515 (50 µM).
The like results for “PXN_P49023_561_FHPEHFVCAFCLK (UniProt P49023)” were, in that order, -0.0786 and 0.0176.
With “RAB21_Q9UL25_29_VVLLGEGCVGK (UniProt Q9UL25)”, the “probe-labelled cysteine peptide fold change” value is, setting by setting: (10 µM) 0.19; (50 µM) 0.224.
On to “PUS7L_Q9H0K6_207_ELCHLVSEEEAFDFFK (UniProt Q9H0K6)”, for which the “probe-labelled cysteine peptide fold change” value was 0.208 (10 µM) and 0.0692 (50 µM).
